PubChem BioAssay AID1224830 – NIAID | 2016
Aim: 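Host factors that control LPS-induced TNF expression in human macrophages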 (primary screen). Cells: human THP-1 monocytic leukaemia cells, TNF dual-luciferase reporter clone, PMA-differentiated to macrophage-like cells. Reagent: siRNA pool against human genes, 50 nM. Duration: LPS for 4 h, given about 3 days after siRNA transfection. Treatment: bacterial LPS (TLR4 ligand), 10 ng/ml. Detection: 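Ratio of firefly to renilla light, scaled to the plate median and expressed as a robust z-score per replicate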. Scale: TNF reporter robust z-score: higher = stronger TNF reporter response to LPS. Call rule: 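Each well counts as active if its z-score is over 2.8 or under -1.5; controls are left without a call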.
Shown is an unselected part of about 18,000 reagents tested. About 2,900 of them (16%) were called active. 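Calls are made per well; low scores hint the gene aids the LPS response, high scores that it dampens it.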 Repeated entries: four replicate wells of each siRNA pool. No sequences are given here.

The opening 7 records, to show the layout:
gene symbol | TNF reporter robust z-score | activity call
ATPAF1 (ATP synthase mitochondrial F1 complex assembly factor 1) | 1.87 | inactive
ATPAF1 (ATP synthase mitochondrial F1 complex assembly factor 1) | -0.34 | inactive
ATPAF1 (ATP synthase mitochondrial F1 complex assembly factor 1) | -0.1 | inactive
ATPAF1 (ATP synthase mitochondrial F1 complex assembly factor 1) | 0.83 | inactive
CRTC1 (CREB regulated transcription coactivator 1) | 0.48 | inactive
CRTC1 (CREB regulated transcription coactivator 1) | 1.62 | inactive
CRTC1 (CREB regulated transcription coactivator 1) | 1.15 | inactive

Main list, from the start:
gene symbol | TNF reporter robust z-score | activity call
ATPAF1 (ATP synthase mitochondrial F1 complex assembly factor 1) | 1.87 | inactive
ATPAF1 (ATP synthase mitochondrial F1 complex assembly factor 1) | -0.34 | inactive
ATPAF1 (ATP synthase mitochondrial F1 complex assembly factor 1) | -0.1 | inactive
ATPAF1 (ATP synthase mitochondrial F1 complex assembly factor 1) | 0.83 | inactive
CRTC1 (CREB regulated transcription coactivator 1) | 0.48 | inactive
CRTC1 (CREB regulated transcription coactivator 1) | 1.62 | inactive
CRTC1 (CREB regulated transcription coactivator 1) | 1.15 | inactive
CRTC1 (CREB regulated transcription coactivator 1) | -0.17 | inactive
ZSCAN4 (zinc finger and SCAN domain containing 4) | -0.98 | inactive
ZSCAN4 (zinc finger and SCAN domain containing 4) | -1.44 | inactive
ZSCAN4 (zinc finger and SCAN domain containing 4) | -1.21 | inactive
ZSCAN4 (zinc finger and SCAN domain containing 4) | -1.09 | inactive
HSPA1B (heat shock protein family A (Hsp70) member 1B) | 0.09 | inactive
HSPA1B (heat shock protein family A (Hsp70) member 1B) | 0.27 | inactive
HSPA1B (heat shock protein family A (Hsp70) member 1B) | 0.04 | inactive
HSPA1B (heat shock protein family A (Hsp70) member 1B) | 2.21 | inactive
GPATCH3 (G-patch domain containing 3) | -0.22 | inactive
GPATCH3 (G-patch domain containing 3) | 0.28 | inactive
GPATCH3 (G-patch domain containing 3) | 0 | inactive
GPATCH3 (G-patch domain containing 3) | 0.54 | inactive
NUTF2 (nuclear transport factor 2) | 1.38 | inactive
NUTF2 (nuclear transport factor 2) | 0.77 | inactive
NUTF2 (nuclear transport factor 2) | 1.89 | inactive
NUTF2 (nuclear transport factor 2) | 0.34 | inactive
DYRK3 (dual specificity tyrosine phosphorylation regulated kinase 3) | -1.86 | active
DYRK3 (dual specificity tyrosine phosphorylation regulated kinase 3) | -2.04 | active
DYRK3 (dual specificity tyrosine phosphorylation regulated kinase 3) | -1.9 | active
DYRK3 (dual specificity tyrosine phosphorylation regulated kinase 3) | -1.23 | inactive
AGMO (alkylglycerol monooxygenase) | -1.12 | inactive
AGMO (alkylglycerol monooxygenase) | -0.22 | inactive
AGMO (alkylglycerol monooxygenase) | -0.56 | inactive
AGMO (alkylglycerol monooxygenase) | 0 | inactive
MT1X (metallothionein 1X) | 2.58 | inactive
MT1X (metallothionein 1X) | 2.84 | active
MT1X (metallothionein 1X) | 3.03 | active
MT1X (metallothionein 1X) | -0.92 | inactive
SUOX (sulfite oxidase) | -0.28 | inactive
SUOX (sulfite oxidase) | -0.24 | inactive
SUOX (sulfite oxidase) | -0.45 | inactive
SUOX (sulfite oxidase) | -0.26 | inactive
MRPS23 (mitochondrial ribosomal protein S23) | 0.57 | inactive
MRPS23 (mitochondrial ribosomal protein S23) | 1.41 | inactive
MRPS23 (mitochondrial ribosomal protein S23) | -0.47 | inactive
MRPS23 (mitochondrial ribosomal protein S23) | -0.83 | inactive
RPS4Y2 (ribosomal protein S4 Y-linked 2) | -1.59 | active
RPS4Y2 (ribosomal protein S4 Y-linked 2) | -1.63 | active
RPS4Y2 (ribosomal protein S4 Y-linked 2) | -1.11 | inactive
RPS4Y2 (ribosomal protein S4 Y-linked 2) | -1.08 | inactive
CRLS1 (cardiolipin synthase 1) | 0.17 | inactive
CRLS1 (cardiolipin synthase 1) | 0.22 | inactive
CRLS1 (cardiolipin synthase 1) | 0.57 | inactive
CRLS1 (cardiolipin synthase 1) | 1.87 | inactive
NME4 (NME/NM23 nucleoside diphosphate kinase 4) | -0.91 | inactive
NME4 (NME/NM23 nucleoside diphosphate kinase 4) | -0.05 | inactive
NME4 (NME/NM23 nucleoside diphosphate kinase 4) | -1.01 | inactive
NME4 (NME/NM23 nucleoside diphosphate kinase 4) | -0.22 | inactive
PPP4R3A (protein phosphatase 4 regulatory subunit 3A) | -0.34 | inactive
PPP4R3A (protein phosphatase 4 regulatory subunit 3A) | 0.73 | inactive
PPP4R3A (protein phosphatase 4 regulatory subunit 3A) | -0.53 | inactive
PPP4R3A (protein phosphatase 4 regulatory subunit 3A) | -0.24 | inactive
E2F8 (E2F transcription factor 8) | 1.36 | inactive
E2F8 (E2F transcription factor 8) | 2.82 | active
E2F8 (E2F transcription factor 8) | 3.97 | active
E2F8 (E2F transcription factor 8) | 3.07 | active
HEXD (hexosaminidase D) | -0.43 | inactive
HEXD (hexosaminidase D) | -0.01 | inactive
HEXD (hexosaminidase D) | -0.46 | inactive
HEXD (hexosaminidase D) | -0.21 | inactive
TLK2 (tousled like kinase 2) | 0.57 | inactive
TLK2 (tousled like kinase 2) | 0.86 | inactive
TLK2 (tousled like kinase 2) | 1.23 | inactive
TLK2 (tousled like kinase 2) | 2.58 | inactive
KRT79 (keratin 79) | -0.6 | inactive
KRT79 (keratin 79) | -0.96 | inactive
KRT79 (keratin 79) | -1.14 | inactive
KRT79 (keratin 79) | -0.68 | inactive
